In paper PMC12040169 (PLOS Biology, 2025):
Some of the results follow.

Each molecule was assayed on T1, CTL2-GFP (C. trachomatis L2/434/Bu, GFP-expressing). Conditions: bulk GFP, single well; 28.5 h, 10 µM; inhibitor.
T1 construct: L2/434/Bu, GFP-expressing
Set-up: species or system HeLa; Intracellular C. trachomatis growth in HeLa cells, bulk GFP fluorescence relative to DMSO

Row | SMILES | % of control remaining [%]
1 | CN1C(=O)/C(=C2\SC(=S)N(C(CC(=O)O)C(=O)O)C2=O)c2ccccc21 (stereo not drawn) [CBK261012] | 68.126
2 | Cc1cc(C)c2c(OCC(=O)N(C)CC(=O)NC(C)C)nn(C)c2n1 [CBK304931] | 112.165
3 | O=C(NCCCN1CCCC(O)C1)N1CCCN(Cc2cccs2)CC1 (stereo not drawn) [CBK307116] | 173.331
4 | CC(=O)NS(=O)(=O)c1ccc(Nc2ccc([N+](=O)[O-])c3nonc23)cc1 [CBK261443] | 117.451
5 | CO/N=C\c1c(CO)cnc(C)c1O [CBK022776] | 138.893
6 | NC(=O)CCNC(=O)c1ccc2[nH]ccc2c1 [CBK149082] | 108.098
7 | Cc1noc(C)c1C(=O)NCCc1ccc(S(N)(=O)=O)cc1 [CBK268143] | 106.448
8 | CC(=O)Nc1nc(-c2ccccc2C)ccc1C(=O)NC1CCCCC1 [CBK106327] | 100
9 | CC(=O)c1ccc(-c2cnc(N)c(N3CCC[C@@H]3CO)n2)s1 [CBK063438] | 164.946
10 | CC(C)(C)c1n[nH]c(C2CN(C(=O)CCc3cscn3)CCO2)n1 (stereo not drawn) [CBK305205] | 119.415
11 | Cc1nc2sccn2c(=O)c1NC(=O)c1ccccn1 [CBK287665] | 94.8652
12 | CC1(C(=O)O)CC(C)(C(=O)O)CC(C)(C(=O)O)C1 (stereo not drawn) [CBK266107] | 100
13 | CN(C)CC1CCCCN1S(=O)(=O)c1ccc(C(C)(C)C)cc1 (stereo not drawn) [CBK051347] | 138.588
14 | COc1ccc(OCC(=O)N2CCN(S(=O)(=O)c3ccccc3[N+](=O)[O-])CC2)cc1 [CBK264213] | 121.625
15 | COc1ccc(-c2cnc(N)nc2C2CCCN(C(=O)CCCc3ccccc3)C2)cc1 (stereo not drawn) [CBK286091] | 123.623
16 | N#Cc1ccsc1NC(=O)CN1CCN(c2cccc(Cl)c2)CC1 [CBK306192] | 83.0939
17 | O=C(/C=C/c1ccc2c(c1)OCO2)NCCSCc1c(F)cccc1Cl [CBK265239] | 118.438
18 | CC(C)(c1ccccc1)c1ccc(OCCOc2ccc(/C=C3\SC(=S)NC3=O)cc2)cc1 [CBK264378] | 129.535
19 | O=C1CSC(c2cn(-c3ccccc3)nc2-c2ccc(Br)cc2)N1Cc1ccccc1 (stereo not drawn) [CBK263146] | 113.464
20 | O=C(NC1(C(F)(F)F)NC(=O)N(CCc2ccccc2)C1=O)c1ccco1 (stereo not drawn) [CBK267482] | 121.664
21 | CCCCCOc1ccc(Nc2ccc(-c3cc4ccccc4o3)cn2)cc1 [CBK036828] | 76.8498
22 | Cc1ccc2c(c1)C1(CC(=O)N(C)C1=O)C(=O)N2CCCOc1ccccc1 (stereo not drawn) [CBK075496] | 133.566
23 | CCn1nc(C2CCCC2)nc1-c1cnc2ccnn2c1C [CBK306626] | 111.229
24 | O=C(CNC(=O)C1CCCCC1)NNC(=O)c1ccccc1Br [CBK267828] | 141.84
25 | COC(=O)c1c(NC(=O)CC2Sc3ccccc3NC2=O)sc(C)c1C (stereo not drawn) [CBK264429] | 100
26 | O=C1COc2ccccc2C/C=C/CC2(CCN(C(=O)Cc3cccnc3)CC2)C(=O)NCCN1 [CBK292153] | 117.491

3 of these compounds in another layout:
Row,SMILES,% of control remaining [%]
10,CC(C)(C)c1n[nH]c(C2CN(C(=O)CCc3cscn3)CCO2)n1 (stereo not drawn) [CBK305205],119.415
11,Cc1nc2sccn2c(=O)c1NC(=O)c1ccccn1 [CBK287665],94.8652
12,CC1(C(=O)O)CC(C)(C(=O)O)CC(C)(C(=O)O)C1 (stereo not drawn) [CBK266107],100

The results go on.

Row | SMILES | % of control remaining [%]
27 | Cc1cc(C)cc(N(C(C)C(=O)Nc2ccccc2-c2ccccc2)S(C)(=O)=O)c1 (stereo not drawn) [CBK268770] | 100.662
28 | COc1cccc(-c2ccc3c(c2)[nH]c(=O)n3C2CCN(C(=O)c3ccc(C)c(OC)c3)CC2)c1 [CBK153141] | 104.593
29 | CC12CC(NC(=O)N1c1ccc(C(=O)O)cc1)c1ccccc1O2 (stereo not drawn) [CBK287226] | 122.497
30 | O=C(CSc1nnc(-c2cccc(Br)c2)o1)Nc1cccc([N+](=O)[O-])c1 [CBK264212] | 96.7229
31 | O=S(=O)(c1cccc(S(=O)(=O)N2CCOCC2)c1)c1ccc(Cl)c(S(=O)(=O)N2CCOCC2)c1 [CBK261260] | 94.1174
32 | COc1ccc([C@@]2(O)CC[C@@H]3CN(C(=O)C4CCCC4)C[C@@H]32)cc1 [CBK285260] | 138.025
33 | CC1CCC(C(=O)Nc2ccc(C(=O)O)cc2)CC1 (stereo not drawn) [CBK287234] | 112.985
34 | Cc1cccc(Nc2nc(C)cc3n[nH]c(=O)n23)c1 [CBK288477] | 46.256
35 | CSc1nc(NC(=O)c2cccs2)cc(N2CCNCC2)n1 [CBK050315T] | 130.83
36 | COc1cccc2c1CCN=C2C[C@H]1CN(C(=O)C2CC2)CC[C@H]1CC(=O)O [CBK289164] | 102.673
37 | Cc1nccn1CC1CCCN(Cc2nc3ccccc3n2C)C1 (stereo not drawn) [CBK281975] | 144.997
38 | Cn1c(CN2CCN(S(C)(=O)=O)CC2)nc2cc([N+](=O)[O-])ccc21 [CBK268362] | 130.806
39 | Cc1ccccc1Sc1cc(C(F)(F)F)ccn1 [CBK115233] | 143.852
40 | Cc1cc(NC(=O)c2nn(-c3nc4ccccc4s3)c3ccccc23)no1 [CBK048489] | 132.507
41 | CC(CNC(=O)C1CCCCC1C(=O)O)c1ccccc1 (stereo not drawn) [CBK268028] | 121.782
42 | O=C(NCCn1nc(-c2cccs2)ccc1=O)c1ccccc1F [CBK283835] | 108.324
43 | O=C(CSc1nnc(-c2ccccc2)[nH]1)c1cccc([N+](=O)[O-])c1 [CBK263287] | 117.987
44 | O=C(Nc1cccnc1)c1cc(S(=O)(=O)N2CCOCC2)ccc1Cl [CBK262099] | 109.453
45 | CCCn1cc(NC(=O)NCc2cc3c(cc2OC)CCC3)nn1 [CBK306614] | 119.455
46 | O=C(Oc1n[nH]c2ccccc12)c1ccc(Cl)cc1 [CBK009976] | 109.57
47 | Cc1nccn1C(C(=O)NCC1(C)COC1)c1ccccc1 (stereo not drawn) [CBK281743] | 158.538
48 | C[S+]([O-])c1nc2ccccc2s1 (stereo not drawn) [CBK028233] | 116.031
49 | Cc1c(C(C)NCC2CCN(C)CC2)cnn1-c1ccc(C#N)cc1 (stereo not drawn) [CBK304058] | 113.564
50 | CCc1ccc(CNC2CCN(Cc3cscn3)CC2)o1 [CBK305104] | 125.199
51 | O=C(O)COc1ccc(Br)cc1/C=C1\N=C(SCc2ccccc2)SC1=O [CBK265725] | 124.967
52 | Clc1ccc(-c2ccc(/C=N/c3ccc4oc(-c5ccccc5)nc4c3)o2)cc1 [CBK261969] | 87.0897

Row | SMILES | % of control remaining [%]
53 | CCOC(=O)CC1C(=O)NCCN1C/C=C\c1ccccc1OC (stereo not drawn) [CBK269791] | 100.133
54 | Cc1ccccc1C(=O)NC1(C(F)(F)F)C(=O)Nc2c1c(=O)[nH]c(=O)n2CCc1ccccc1 (stereo not drawn) [CBK267483] | 142.201
55 | CCC1CCCCN1C(=O)c1ccc(C)c(Br)c1 (stereo not drawn) [CBK081559] | 84.3519
56 | Cc1ncccc1COC(=O)N1CCSCC1 [CBK200156] | 94.5883
57 | Clc1ccc(Nc2nc(-c3ccoc3)cn3ccnc23)cc1 [CBK066497] | 130.383
58 | CC1CCN(CC(CS(=O)(=O)c2ccc([N+](=O)[O-])cc2)N2CCC(C)CC2)CC1 (stereo not drawn) [CBK267506] | 136.334
59 | COc1ccc(/N=C2\NC(=O)/C(=C\C=C\c3ccccc3)S2)cc1 [CBK263417] | 126.343
60 | CN1CCN(c2ccc(-c3cncc(NC4CCOCC4)n3)cn2)CC1 [CBK037229] | 205.033
61 | O=S(=O)(c1ccc(C(F)(F)F)cc1)c1ccc2nccc(N3CCNCC3)c2c1 [CBK200016C] | 115.931
62 | CCN(Cc1ccc(C#N)cc1F)C(=O)NC(C)c1cnn(C)c1C (stereo not drawn) [CBK305643] | 114.895
63 | CNC(=O)c1cccc(NC(=O)c2cc(-c3ccc(O)cc3)cnc2N(C)C)c1 [CBK106397] | 116.066
64 | O=C(N/N=C/c1cc([N+](=O)[O-])ccc1Cl)c1ccc(O)c(O)c1 [CBK261599] | 78.2392
65 | CC(C)c1ccc2c(c1)C(N1CCN(C)CC1)Cc1cccnc1S2 (stereo not drawn) [CBK026244G] | 100
66 | O=C(Nc1ccc2ncccc2c1)c1cnc(-c2cccc(C(F)(F)F)c2)c(-c2cccnc2)c1 [CBK037591] | 106.794
67 | c1ccc([C@@H]2CN(Cc3ccncc3)C[C@H]2c2cc[nH]n2)cc1 [CBK285161] | 108.653
68 | COc1ccccc1C(=O)N1CCC(Cc2cccc(-c3cccs3)c2)(C(N)=O)CC1 [CBK285742] | 92.5356
69 | Nc1ncc(-c2ccco2)nc1-c1ccc(C=O)cc1 [CBK064095] | 127.047
70 | Fc1ccc([C@@H]2CN(Cc3cccnc3)C[C@H]2c2cc[nH]n2)cc1 [CBK283054] | 110.482
71 | O=C(c1cnoc1-c1ccc([N+](=O)[O-])cc1)N1CCCC1 [CBK153846] | 114.273
72 | COc1ccc(-c2nc(NCc3ccccc3)n(C(=O)c3ccc([N+](=O)[O-])cc3)n2)cc1 [CBK268265] | 140.01
73 | COc1ccc(-c2cnn(-c3cncnc3)n2)cc1 [CBK112763] | 108.832
74 | Cc1ccccc1NC(=O)Cn1cnc2c(cnn2-c2ccccc2)c1=O [CBK287530] | 144.137
75 | CCC(O)CNS(=O)(=O)c1ccc(C(C)C)cc1 (stereo not drawn) [CBK043543] | 105.142
76 | CCOc1ccccc1NC(=O)NCCSCc1ccco1 [CBK057501] | 118.47
77 | CCNS(=O)(=O)c1ccc2c(c1)N(Cc1nc(C)c(C)o1)CC2 [CBK305189] | 129.557
78 | Cc1c(C(C)NCC(O)c2ccncc2)cnn1-c1ccc(C#N)cc1 (stereo not drawn) [CBK305403] | 115.465
